Assay results taken from patent US20250282812A1, “ANTIVIRAL NUCLEOSIDE ANALOGUE, AND PHARMACEUTICAL COMPOSITION AND USE THEREOF” (SHANGHAI INSTITUTE OF MATERIA MEDICA , CHINESE ACADEMY OF …, priority 2022, published 2025).
Some results were stated once for a whole list of compounds, not compound by compound.

Assay: Stability test of compounds in solutions at different pH values
Settings: solutions at pH 4.0 and pH 6.8, 24 h

SMILES	content changed in 24 h
CCC(CC)C(=O)OCn1c(=O)ccn([C@@H]2O[C@](F)(COC(=O)C(C)C)[C@@H](O)[C@H]2O)c1=O [Compound X52]	≤ 10%
CC(C)C(=O)OCn1c(=O)ccn([C@@H]2O[C@](F)(COC(=O)C(C)C)[C@@H](O)[C@H]2O)c1=O [Compound X51]	≤ 10%
CC(=O)OC[C@@]1(F)O[C@@H](n2ccc(=O)n(COC(=O)c3cccnc3)c2=O)[C@H](OC(C)=O)[C@@H]1OC(C)=O [Compound X219]	≤ 10%
CC(C)C(=O)OC[C@@]1(F)O[C@@H](n2ccc(=O)n(COC(=O)c3cccnc3)c2=O)[C@H](OC(=O)C(C)C)[C@@H]1OC(=O)C(C)C [Compound X206]	≤ 10%
